This is an account of results in the supplement of paper PMC11006884.

Sequences of proteins named here, by UniProt entry; tags and fusion partners are left off. A change or cut given only in a name is not applied to a line headed by its entry.
UniProt Q96AY4: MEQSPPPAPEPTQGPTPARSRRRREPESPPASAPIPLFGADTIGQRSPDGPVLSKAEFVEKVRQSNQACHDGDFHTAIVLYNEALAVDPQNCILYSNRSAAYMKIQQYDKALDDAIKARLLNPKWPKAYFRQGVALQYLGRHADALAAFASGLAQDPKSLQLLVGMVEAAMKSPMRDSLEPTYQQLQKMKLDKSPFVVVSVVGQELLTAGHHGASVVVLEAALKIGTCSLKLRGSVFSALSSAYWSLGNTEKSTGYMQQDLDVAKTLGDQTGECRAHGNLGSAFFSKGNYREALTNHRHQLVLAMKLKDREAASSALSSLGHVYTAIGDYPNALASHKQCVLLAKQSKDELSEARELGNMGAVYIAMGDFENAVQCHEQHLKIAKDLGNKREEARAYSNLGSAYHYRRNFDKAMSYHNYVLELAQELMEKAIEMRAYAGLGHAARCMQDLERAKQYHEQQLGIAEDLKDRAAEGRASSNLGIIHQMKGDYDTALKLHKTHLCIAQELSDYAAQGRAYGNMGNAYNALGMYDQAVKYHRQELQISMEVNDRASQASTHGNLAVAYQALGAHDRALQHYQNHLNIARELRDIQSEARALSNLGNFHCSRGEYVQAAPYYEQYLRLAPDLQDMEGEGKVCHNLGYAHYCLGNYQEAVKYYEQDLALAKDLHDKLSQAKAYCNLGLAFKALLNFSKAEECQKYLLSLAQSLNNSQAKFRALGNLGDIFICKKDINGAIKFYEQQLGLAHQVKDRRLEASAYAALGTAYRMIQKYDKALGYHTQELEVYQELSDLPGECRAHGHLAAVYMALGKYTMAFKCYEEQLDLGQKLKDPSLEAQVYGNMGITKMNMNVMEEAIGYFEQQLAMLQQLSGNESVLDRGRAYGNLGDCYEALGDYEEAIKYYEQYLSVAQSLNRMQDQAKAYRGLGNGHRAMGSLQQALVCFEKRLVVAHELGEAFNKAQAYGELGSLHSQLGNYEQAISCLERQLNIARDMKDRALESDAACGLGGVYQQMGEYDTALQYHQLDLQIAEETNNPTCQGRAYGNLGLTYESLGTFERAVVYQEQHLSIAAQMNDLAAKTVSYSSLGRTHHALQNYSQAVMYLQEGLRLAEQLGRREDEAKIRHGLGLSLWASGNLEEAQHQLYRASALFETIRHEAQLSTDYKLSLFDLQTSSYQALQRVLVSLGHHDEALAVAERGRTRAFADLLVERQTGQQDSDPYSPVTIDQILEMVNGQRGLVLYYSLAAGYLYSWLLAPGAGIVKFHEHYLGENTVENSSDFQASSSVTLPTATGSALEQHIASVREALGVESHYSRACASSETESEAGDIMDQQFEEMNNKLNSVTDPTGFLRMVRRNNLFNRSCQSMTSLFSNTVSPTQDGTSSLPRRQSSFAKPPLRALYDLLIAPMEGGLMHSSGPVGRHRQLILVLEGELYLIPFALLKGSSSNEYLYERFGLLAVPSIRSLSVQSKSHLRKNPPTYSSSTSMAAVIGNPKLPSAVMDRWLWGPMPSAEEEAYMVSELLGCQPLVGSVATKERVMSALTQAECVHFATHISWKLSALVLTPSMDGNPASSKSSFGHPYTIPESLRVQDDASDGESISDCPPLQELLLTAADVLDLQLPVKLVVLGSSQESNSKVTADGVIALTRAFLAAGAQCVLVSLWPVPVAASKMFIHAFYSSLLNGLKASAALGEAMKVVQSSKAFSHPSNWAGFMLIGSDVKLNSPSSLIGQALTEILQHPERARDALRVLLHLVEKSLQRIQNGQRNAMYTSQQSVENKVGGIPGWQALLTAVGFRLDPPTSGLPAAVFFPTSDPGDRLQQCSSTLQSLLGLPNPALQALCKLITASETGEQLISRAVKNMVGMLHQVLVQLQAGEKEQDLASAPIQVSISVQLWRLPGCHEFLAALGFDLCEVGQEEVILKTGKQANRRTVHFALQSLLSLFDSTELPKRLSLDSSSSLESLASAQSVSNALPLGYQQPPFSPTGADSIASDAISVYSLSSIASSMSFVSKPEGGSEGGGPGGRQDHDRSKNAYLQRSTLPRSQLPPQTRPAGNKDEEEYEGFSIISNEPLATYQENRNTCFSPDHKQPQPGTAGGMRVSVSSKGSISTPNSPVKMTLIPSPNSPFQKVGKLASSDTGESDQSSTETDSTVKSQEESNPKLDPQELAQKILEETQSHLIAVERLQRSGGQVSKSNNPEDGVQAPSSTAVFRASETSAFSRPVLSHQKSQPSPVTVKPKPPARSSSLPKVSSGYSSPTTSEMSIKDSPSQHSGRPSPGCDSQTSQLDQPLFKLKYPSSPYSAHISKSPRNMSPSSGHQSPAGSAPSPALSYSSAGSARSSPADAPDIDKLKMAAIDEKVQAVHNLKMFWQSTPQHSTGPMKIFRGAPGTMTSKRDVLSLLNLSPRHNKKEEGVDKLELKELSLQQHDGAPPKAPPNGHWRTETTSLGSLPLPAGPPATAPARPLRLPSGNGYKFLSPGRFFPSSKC
UniProt Q92616, whole entry, looked up: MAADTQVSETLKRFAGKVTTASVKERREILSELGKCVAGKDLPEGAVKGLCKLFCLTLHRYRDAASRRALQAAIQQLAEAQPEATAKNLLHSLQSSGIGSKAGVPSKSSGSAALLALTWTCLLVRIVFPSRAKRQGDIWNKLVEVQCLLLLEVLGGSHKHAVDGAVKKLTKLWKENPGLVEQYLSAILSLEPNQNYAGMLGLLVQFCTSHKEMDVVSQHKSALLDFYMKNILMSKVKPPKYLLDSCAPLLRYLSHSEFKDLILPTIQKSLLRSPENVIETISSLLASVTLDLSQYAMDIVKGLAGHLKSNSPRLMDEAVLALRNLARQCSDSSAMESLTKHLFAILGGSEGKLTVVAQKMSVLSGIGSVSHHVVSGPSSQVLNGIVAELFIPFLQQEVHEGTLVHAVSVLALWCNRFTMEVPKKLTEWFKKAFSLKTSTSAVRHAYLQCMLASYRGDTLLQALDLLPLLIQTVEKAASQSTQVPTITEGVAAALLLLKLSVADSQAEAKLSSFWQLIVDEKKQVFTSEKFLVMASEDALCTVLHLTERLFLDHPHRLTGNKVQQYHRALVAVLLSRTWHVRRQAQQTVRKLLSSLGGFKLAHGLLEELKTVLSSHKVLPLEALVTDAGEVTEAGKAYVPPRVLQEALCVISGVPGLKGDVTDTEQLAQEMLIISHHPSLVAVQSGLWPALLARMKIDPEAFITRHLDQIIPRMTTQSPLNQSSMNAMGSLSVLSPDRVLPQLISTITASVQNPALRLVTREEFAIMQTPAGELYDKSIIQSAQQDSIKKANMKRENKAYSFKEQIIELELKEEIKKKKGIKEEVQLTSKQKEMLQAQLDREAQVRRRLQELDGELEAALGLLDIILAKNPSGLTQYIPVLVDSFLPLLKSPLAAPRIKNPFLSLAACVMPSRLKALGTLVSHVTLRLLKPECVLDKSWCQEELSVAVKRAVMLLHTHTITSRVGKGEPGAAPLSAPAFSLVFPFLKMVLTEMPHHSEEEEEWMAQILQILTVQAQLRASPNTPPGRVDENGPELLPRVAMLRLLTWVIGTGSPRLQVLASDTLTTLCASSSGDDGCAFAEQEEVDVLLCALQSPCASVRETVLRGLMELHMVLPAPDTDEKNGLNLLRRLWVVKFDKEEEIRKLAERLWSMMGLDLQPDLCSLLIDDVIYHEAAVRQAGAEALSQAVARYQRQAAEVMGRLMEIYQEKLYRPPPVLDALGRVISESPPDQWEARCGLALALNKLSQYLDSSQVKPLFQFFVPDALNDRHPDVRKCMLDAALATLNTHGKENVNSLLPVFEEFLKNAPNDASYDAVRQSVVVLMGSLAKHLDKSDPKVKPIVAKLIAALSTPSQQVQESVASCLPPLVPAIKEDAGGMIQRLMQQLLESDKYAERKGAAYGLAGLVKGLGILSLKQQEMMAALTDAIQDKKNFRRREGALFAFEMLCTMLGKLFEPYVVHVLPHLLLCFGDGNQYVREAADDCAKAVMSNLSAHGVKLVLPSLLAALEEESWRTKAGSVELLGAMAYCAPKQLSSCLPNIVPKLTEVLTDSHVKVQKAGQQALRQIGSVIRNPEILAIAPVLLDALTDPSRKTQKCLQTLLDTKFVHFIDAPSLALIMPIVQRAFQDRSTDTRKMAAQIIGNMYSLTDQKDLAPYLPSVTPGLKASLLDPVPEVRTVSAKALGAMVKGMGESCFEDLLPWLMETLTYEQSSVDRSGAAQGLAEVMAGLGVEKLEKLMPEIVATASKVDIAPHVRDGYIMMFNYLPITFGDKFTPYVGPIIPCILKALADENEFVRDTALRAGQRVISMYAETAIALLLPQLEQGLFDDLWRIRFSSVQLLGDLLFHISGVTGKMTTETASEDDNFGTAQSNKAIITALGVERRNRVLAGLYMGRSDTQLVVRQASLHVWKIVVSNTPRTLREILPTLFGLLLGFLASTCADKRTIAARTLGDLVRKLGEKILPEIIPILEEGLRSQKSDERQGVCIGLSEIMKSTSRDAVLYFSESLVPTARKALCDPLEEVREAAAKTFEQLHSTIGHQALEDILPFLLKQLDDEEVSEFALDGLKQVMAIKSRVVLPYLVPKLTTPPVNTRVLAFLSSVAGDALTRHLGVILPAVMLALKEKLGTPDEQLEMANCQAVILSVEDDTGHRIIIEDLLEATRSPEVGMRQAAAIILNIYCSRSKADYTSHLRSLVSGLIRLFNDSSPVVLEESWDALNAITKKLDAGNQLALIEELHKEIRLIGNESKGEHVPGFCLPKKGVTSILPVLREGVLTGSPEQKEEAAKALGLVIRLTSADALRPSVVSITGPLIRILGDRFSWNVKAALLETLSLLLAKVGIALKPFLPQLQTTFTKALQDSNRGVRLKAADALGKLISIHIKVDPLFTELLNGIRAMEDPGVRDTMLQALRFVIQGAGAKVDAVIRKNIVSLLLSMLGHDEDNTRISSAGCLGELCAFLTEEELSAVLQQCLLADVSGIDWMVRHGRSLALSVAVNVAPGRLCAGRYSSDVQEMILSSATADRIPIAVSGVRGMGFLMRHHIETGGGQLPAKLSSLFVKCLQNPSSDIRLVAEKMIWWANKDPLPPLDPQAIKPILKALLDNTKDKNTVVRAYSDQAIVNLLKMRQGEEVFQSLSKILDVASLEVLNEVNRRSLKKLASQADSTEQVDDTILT
UniProt Q93009, whole entry, looked up: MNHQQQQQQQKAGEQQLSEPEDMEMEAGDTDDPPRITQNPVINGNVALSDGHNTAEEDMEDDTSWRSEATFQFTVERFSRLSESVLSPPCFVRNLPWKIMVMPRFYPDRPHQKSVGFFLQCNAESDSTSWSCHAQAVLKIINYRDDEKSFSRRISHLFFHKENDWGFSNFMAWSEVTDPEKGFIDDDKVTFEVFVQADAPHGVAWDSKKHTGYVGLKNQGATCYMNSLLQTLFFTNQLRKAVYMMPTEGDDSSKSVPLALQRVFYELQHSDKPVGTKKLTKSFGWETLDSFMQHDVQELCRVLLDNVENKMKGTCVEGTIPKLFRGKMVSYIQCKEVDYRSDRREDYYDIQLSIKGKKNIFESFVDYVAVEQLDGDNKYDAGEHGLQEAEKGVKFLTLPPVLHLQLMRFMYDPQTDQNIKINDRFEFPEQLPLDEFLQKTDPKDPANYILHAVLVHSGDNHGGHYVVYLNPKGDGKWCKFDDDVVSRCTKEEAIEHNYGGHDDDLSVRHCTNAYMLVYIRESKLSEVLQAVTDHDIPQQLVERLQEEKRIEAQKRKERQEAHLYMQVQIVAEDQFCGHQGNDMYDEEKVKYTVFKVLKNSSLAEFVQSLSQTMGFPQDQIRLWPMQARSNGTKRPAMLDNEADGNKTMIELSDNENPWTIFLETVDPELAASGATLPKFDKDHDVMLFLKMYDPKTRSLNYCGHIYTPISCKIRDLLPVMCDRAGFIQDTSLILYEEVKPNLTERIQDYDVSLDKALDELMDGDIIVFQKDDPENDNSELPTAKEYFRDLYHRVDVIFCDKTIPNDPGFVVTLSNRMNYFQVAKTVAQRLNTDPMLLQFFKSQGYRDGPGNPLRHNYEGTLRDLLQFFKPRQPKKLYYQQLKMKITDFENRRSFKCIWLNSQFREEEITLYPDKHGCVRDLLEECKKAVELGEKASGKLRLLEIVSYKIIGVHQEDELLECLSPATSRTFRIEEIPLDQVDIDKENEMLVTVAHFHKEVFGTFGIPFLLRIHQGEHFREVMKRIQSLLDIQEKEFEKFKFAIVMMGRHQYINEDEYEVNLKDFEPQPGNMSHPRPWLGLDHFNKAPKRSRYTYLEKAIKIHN
UniProt Q96FW1, whole entry, looked up: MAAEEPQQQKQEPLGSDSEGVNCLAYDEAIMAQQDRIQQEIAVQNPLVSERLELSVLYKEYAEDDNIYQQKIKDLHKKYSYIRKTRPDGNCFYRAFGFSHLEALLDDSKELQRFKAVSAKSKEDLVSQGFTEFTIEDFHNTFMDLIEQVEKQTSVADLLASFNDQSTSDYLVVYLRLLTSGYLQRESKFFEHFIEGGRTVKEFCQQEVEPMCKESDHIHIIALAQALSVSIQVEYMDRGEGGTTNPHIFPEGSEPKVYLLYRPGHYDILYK

What follows is the remainder of the data, with few or none of the targets with a hit. Single values of this set are uncertain. Only a part is listed here, and it is no random draw.

Compound in this assay: COC(=O)/C=C/c1ccccc1 [methyl cinnamate]
Put plainly: log2 ratio of iodoacetamide-alkyne labeling of the cysteine site, DMSO over compound (competition); higher = stronger covalent engagement of the cysteine by the compound, active = 1 or more. The note with it: 500 µM; treatment time 1 h; system: HEK293T cell lysate. In a few lines: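 HEK293T lysate at 2 mg/mL was treated with vehicle or electrophile (500 µM) for 1 h at ambient temperature, then labelled with iodoacetamide alkyne (1 h), clicked to sCIP-TMT reagents, pooled, digested with trypsin overnight at 37 °C, enriched on streptavidin and eluted with acid. Peptides were analysed by Orbitrap Eclipse LC-MS/MS with FAIMS and quantified in FragPipe, using duplicate channels and three replicates, with cysteines quantified in only one replicate excluded. The log2 competition ratio for each cysteine is the mean control-channel reporter intensity divided by the mean compound-channel reporter intensity.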
As for HSPH1 C290 (UniProt Q92598), the “log2 ratio of iodoacetamide-alkyne labeling” value (shortened to “log2 ratio”) was inactive: 0.0473.

On to TTC28 C502 (UniProt Q96AY4), for which the “log2 ratio” value is inactive: 0.108.

In the case of TONSL C283 (UniProt Q96HA7), the “log2 ratio” value is inactive: -0.032.

Turning to EDC3 C91 (UniProt Q96F86), the “log2 ratio” value was inactive: -0.0883.

For the target NT5C3B C56 (UniProt Q969T7), the “log2 ratio” value was inactive: 0.359.

In the case of MRPL38 C290 (UniProt Q96DV4), the “log2 ratio” value was inactive: -0.042.

Consider KHSRP C379 (UniProt Q92945), for which the “log2 ratio” value was inactive: 0.157.

Regarding USP9X C577 (UniProt Q93008), the “log2 ratio” value was inactive: 0.0975.

Turning to SMARCC1 C511 (UniProt Q92922), the “log2 ratio” value is inactive: -0.0117.

With RAD54L C20 (UniProt Q92698), the “log2 ratio” value is inactive: 0.074.

UniProt Q96HE7_C166: the “log2 ratio” value is inactive: 0.33.

Regarding EXOSC8 C89 (UniProt Q96B26), the “log2 ratio” value was inactive: 0.0125.

Consider UniProt Q92616_C2558, for which the “log2 ratio” value was inactive: 0.279.

In the case of DLG3 C519 (UniProt Q92796), the “log2 ratio” value was inactive: 0.0943.

WBP2 C80 (UniProt Q969T9): the “log2 ratio” value was inactive: 0.161.

With AKAP1 C102 (UniProt Q92667), the “log2 ratio” value is inactive: -0.0189.

As for UniProt Q96BD8_C10, the “log2 ratio” value is inactive: 0.186.

KHSRP C296 (UniProt Q92945): the “log2 ratio” value is inactive: -0.00617.

With USP7 C961 (UniProt Q93009), the “log2 ratio” value is inactive: 0.264.

With LRRC59 C131 (UniProt Q96AG4), the “log2 ratio” value is inactive: 0.221.

With CLP1 C338 (UniProt Q92989), the “log2 ratio” value is inactive: 0.334.

For CCDC47 C214 (UniProt Q96A33), the “log2 ratio” value was inactive: 0.393.

As for PHF3 C1616 (UniProt Q92576), the “log2 ratio” value was inactive: 0.327.

With UniProt Q92616_C246, the “log2 ratio” value was inactive: 0.0116.

Turning to OTUD5 C434 (UniProt Q96G74), the “log2 ratio” value was inactive: 0.152.

For LPP C262 (UniProt Q93052), the “log2 ratio” value is inactive: 0.283.

GPKOW C137 (UniProt Q92917): the “log2 ratio” value was inactive: 0.444.

As for TNPO1 C297 (UniProt Q92973), the “log2 ratio” value was inactive: -0.261.

On to FAF2 C32 (UniProt Q96CS3), for which the “log2 ratio” value was inactive: -0.0289.

In the case of OTUB1 C23 (UniProt Q96FW1), the “log2 ratio” value is inactive: 0.407.

Turning to RAD50 C633 (UniProt Q92878), the “log2 ratio” value was inactive: 0.239.

As to ARHGEF2 C715 (UniProt Q92974), the “log2 ratio” value is inactive: 0.177.

Regarding RAD50 C157 (UniProt Q92878), the “log2 ratio” value was inactive: -0.108.

For DAZAP1 C39 (UniProt Q96EP5), the “log2 ratio” value was inactive: -0.0785.

On to ATXN7L3B C75 (UniProt Q96GX2), for which the “log2 ratio” value was inactive: 0.114.

With SNX19 C368 (UniProt Q92543), the “log2 ratio” value was inactive: 0.237.

In the case of CCDC97 C218 (UniProt Q96F63), the “log2 ratio” value is inactive: 0.234.
